Data source: PubChem BioAssay AID1259405 (NCATS, 2018)
Screen: 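Silenced genes that increase secreted GFP made by CHO cells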 (primary screen). System: Chinese hamster CHO-K1 ovary cells with stable secreted eGFP expression. Reagents: single siRNA against mouse genes, 0.8 pmol siRNA per well (2 µl of 400 nM stock). Duration: 3 days. Detection: 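Per-well intracellular GFP measured by laser scanning cytometry, plus viability from ATP luminescence, each relative to plate median of non-targeting control wells, in %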. Scale: GFP, % of control: higher = more GFP per well, higher productivity; viability (ATP), % of control: higher = more viable cells (more ATP). Active means: 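Called active when intracellular GFP, relative to negative control, is at or above 120%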.
The whole screen tested about 50,000 reagents; this is an unselected part. About 4,000 of all reagents (8%) were called active. 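Mouse siRNA library applied to hamster cells; one well for each siRNA.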 Reagents against one gene are numbered here.

The opening 2 entries, ahead of the listing:
| gene | reagent | GFP, % of control | viability (ATP), % of control | Outcome |
| --- | --- | --- | --- | --- |
| Trim54 | 1 | 43.1 | 62.2 | inactive |
| Trim54 | 2 | 84.4 | 80.4 | inactive |

The listing, from the start:
| gene | reagent | GFP, % of control | viability (ATP), % of control | Outcome |
| --- | --- | --- | --- | --- |
| Trim54 | 1 | 43.1 | 62.2 | inactive |
| Trim54 | 2 | 84.4 | 80.4 | inactive |
| Trim54 | 3 | 92.4 | 52.8 | inactive |
| Med25 | 1 | 73.8 | 62.1 | inactive |
| Med25 | 2 | 85.1 | 92.8 | inactive |
| 4631405J19Rik | 1 | 43.7 | 26.3 | inactive |
| 4631405J19Rik | 2 | 26.6 | 63.4 | inactive |
| 4631405J19Rik | 3 | 111 | 49.8 | inactive |
| Nmral1 | 1 | 91.4 | 91.7 | inactive |
| Nmral1 | 2 | 65.5 | 77.1 | inactive |
| Nmral1 | 3 | 67 | 102 | inactive |
| Gldn | 1 | 99.9 | 86.1 | inactive |
| Gldn | 2 | 81.8 | 67.1 | inactive |
| Gldn | 3 | 106 | 98.4 | inactive |
| Celf1 | 1 | 136 | 88.2 | active |
| Celf1 | 2 | 43.3 | 68.6 | inactive |
| Celf1 | 3 | 61.6 | 59.5 | inactive |
| Hmces | 1 | 84.2 | 66.3 | inactive |
| Hmces | 2 | 89.9 | 89.4 | inactive |
| Hmces | 3 | 89.1 | 118 | inactive |
| Tc2n | 1 | 55.8 | 76.5 | inactive |
| Tc2n | 2 | 74.2 | 68 | inactive |
| Susd4 | 1 | 103 | 98.9 | inactive |
| Susd4 | 2 | 120 | 111 | active |
| Susd4 | 3 | 165 | 69.7 | active |
| Susd4 | 4 | 77.8 | 91.2 | inactive |
| Susd4 | 5 | 95.6 | 93.9 | inactive |
| Susd4 | 6 | 93.4 | 80.7 | inactive |
| Or10a3 | 1 | 43.5 | 56.9 | inactive |
| Or10a3 | 2 | 159 | 97.9 | active |
| Or10a3 | 3 | 46.7 | 49.1 | inactive |
| Slc16a1 | 1 | 85.9 | 61 | inactive |
| Slc16a1 | 2 | 54.7 | 71.7 | inactive |
| Slc16a1 | 3 | 70.1 | 78.5 | inactive |
